These are yes or no findings as the source states them, for the method shown. In cells and extracts the contact can be indirect. Binding can be weak; no strength is given.
Legend:
Assay in all cases: proximity ligation
[1] = biological target: RUNX1 (mouse (endogenous in granulosa cells)) (UniProt Q03347)
[2] = biological target: T1, JUND (mouse (endogenous in granulosa cells)) (UniProt P15066)
T1 sequence: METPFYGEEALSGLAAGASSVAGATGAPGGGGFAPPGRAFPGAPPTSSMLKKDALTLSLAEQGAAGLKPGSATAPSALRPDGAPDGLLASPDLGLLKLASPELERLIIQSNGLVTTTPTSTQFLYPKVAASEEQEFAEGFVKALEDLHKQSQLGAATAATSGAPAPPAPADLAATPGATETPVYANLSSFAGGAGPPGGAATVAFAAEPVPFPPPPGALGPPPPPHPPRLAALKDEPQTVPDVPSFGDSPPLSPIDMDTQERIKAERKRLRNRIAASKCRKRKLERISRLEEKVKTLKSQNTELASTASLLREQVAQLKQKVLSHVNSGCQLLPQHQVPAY

The chains behind the UniProt entries cited, without tags or fusion partners. Where a name states a change or a piece, a line headed by the entry shows the natural chain unless it says otherwise.
UniProt Q03347: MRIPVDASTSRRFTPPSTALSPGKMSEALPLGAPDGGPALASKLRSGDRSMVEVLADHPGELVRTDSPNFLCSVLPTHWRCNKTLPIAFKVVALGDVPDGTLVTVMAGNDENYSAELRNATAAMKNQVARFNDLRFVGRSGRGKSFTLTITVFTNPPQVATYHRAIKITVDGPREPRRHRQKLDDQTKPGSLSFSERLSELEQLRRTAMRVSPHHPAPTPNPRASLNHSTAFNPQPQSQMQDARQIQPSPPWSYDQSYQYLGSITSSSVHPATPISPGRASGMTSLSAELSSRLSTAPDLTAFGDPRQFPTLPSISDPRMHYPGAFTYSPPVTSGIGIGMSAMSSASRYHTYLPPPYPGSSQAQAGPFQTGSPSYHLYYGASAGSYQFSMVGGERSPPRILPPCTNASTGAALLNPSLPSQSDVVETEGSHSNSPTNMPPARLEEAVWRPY
UniProt Q08775: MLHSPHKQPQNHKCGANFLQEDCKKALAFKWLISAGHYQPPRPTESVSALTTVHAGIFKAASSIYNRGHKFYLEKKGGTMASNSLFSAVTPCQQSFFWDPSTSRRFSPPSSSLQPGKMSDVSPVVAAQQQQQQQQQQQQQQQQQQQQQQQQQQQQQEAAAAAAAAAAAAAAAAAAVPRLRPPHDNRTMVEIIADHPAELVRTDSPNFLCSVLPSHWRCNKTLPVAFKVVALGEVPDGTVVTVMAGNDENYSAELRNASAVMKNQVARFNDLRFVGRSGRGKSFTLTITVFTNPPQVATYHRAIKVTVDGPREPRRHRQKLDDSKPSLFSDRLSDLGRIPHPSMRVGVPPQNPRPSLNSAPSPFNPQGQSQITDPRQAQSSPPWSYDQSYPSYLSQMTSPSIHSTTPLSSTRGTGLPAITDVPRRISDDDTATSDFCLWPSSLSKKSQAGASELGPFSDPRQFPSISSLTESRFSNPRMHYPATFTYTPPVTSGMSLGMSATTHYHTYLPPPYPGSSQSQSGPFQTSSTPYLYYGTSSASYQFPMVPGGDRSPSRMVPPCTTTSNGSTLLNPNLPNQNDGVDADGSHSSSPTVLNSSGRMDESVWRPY
UniProt P45448: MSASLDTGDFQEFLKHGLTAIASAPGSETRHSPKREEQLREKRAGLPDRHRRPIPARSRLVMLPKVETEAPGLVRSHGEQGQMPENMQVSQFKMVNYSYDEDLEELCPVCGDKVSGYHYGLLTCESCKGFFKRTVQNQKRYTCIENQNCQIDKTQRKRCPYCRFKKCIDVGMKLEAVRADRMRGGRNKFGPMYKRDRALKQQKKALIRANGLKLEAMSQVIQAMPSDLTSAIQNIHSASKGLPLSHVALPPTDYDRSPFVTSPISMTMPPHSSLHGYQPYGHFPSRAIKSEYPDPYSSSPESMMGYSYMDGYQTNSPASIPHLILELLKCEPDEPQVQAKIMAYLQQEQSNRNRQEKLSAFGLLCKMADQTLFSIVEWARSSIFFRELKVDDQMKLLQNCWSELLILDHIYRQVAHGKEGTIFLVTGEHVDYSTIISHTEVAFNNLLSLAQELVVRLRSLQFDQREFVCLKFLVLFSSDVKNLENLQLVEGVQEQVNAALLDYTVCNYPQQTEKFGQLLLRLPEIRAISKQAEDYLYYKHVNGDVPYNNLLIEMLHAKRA
UniProt Q00175: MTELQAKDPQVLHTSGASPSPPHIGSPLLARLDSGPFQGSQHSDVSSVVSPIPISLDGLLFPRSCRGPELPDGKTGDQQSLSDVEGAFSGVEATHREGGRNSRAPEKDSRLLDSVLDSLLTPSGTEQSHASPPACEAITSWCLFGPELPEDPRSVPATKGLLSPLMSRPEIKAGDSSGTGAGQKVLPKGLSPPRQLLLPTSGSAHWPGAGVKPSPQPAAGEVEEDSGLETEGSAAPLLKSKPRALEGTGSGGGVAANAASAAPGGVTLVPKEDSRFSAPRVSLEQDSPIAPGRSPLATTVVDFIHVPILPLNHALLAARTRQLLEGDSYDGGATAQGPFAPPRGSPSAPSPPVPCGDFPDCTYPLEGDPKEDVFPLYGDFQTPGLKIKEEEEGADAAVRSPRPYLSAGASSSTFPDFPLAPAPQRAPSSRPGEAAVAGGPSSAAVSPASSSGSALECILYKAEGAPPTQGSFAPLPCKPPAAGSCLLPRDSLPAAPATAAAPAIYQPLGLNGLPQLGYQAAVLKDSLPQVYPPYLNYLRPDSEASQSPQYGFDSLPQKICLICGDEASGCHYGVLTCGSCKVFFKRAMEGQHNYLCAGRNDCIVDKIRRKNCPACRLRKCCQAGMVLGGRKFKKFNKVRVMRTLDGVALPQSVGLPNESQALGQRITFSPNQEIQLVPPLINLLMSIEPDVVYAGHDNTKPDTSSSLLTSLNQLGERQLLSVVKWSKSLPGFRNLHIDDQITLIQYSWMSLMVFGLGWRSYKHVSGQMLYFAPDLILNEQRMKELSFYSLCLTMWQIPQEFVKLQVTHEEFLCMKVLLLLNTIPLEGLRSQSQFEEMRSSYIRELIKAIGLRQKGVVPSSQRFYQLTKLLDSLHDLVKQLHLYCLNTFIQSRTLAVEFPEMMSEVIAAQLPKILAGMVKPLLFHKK

[3] = biological target: RUNX2 (mouse (endogenous in granulosa cells)) (UniProt Q08775)
[4] = biological target: NR5A2 (LRH1) (mouse (endogenous in granulosa cells)) (UniProt P45448)

binding [1]: binds | binding [2]: binds | binding [3]: binds | binding [4]: binds weakly
Substance: Progesterone receptor (PGR) (from UniProt Q00175)

Source: paper doi:10.1101/2021.06.17.448908
